Test results from PMC5996148.
The other results are listed elsewhere or left out.

Assays:
Test in all cases: protein microarray (ProtoArray v5.0), streptavidin-Alexa Fluor 647
Conditions in all cases: 3'-biotin; 20 mM Tris (pH 7.5), 5 mM MgCl2, 100 mM KCl, 0.1% Tween-20, A/T-rich and random oligonucleotide blockers; temperature not stated; high values mean tight binding
[1] = tested on: TAK1-like protein (human)
[2] = tested on: TANK (human)
[3] = tested on: TAP2 (human)
[4] = tested on: TARP (human)
[5] = tested on: TAS2R43 (human)
[6] = tested on: TBC1 domain family member 13 (human)
[7] = tested on: TBC1 domain family member 9B (human)
[8] = tested on: TBC1D21 (human)
[9] = tested on: TBC1D7 (human)
[10] = tested on: TBC1D9B (human)

GGGAGGCTGAGGCAGG [G4-1 biotinylated (PQS2)]
binding signal [1]: -0.334 z-score
binding signal [2]: -0.334 z-score
binding signal [3]: -0.327 z-score
binding signal [4]: -0.275 z-score
binding signal [5]: -0.252 z-score
binding signal [6]: -0.368 z-score
binding signal [7]: -0.237 z-score
binding signal [8]: -0.348 z-score
binding signal [9]: -0.342 z-score
binding signal [10]: -0.364 z-score
